{"source": "the supplement of paper PMC10973195", "note": "± gives the standard deviation of the averaged measurements. Some of the results follow. These are raw signals, not scaled to a control.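 A neuron, microglia and astrocyte co-culture models inflammatory neurodegeneration: bacterial LPS drives microglia-dependent neuron loss. Each compound was tested against DMSO vehicle wells on the same plates; BAY61-3606, a SYK inhibitor, was the reference neuroprotective control.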"}
{"tested_on": "rat primary cerebellar neuron-glia coculture", "experiment": "necrotic cell count (DRAQ7+) per image field (cells per field); higher = more necrosis", "details": "LPS 0 ng/mL; 1 µM; treatment time 3 days", "procedure": "(§1)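 Primary rat (P3-7) cerebellar neuron-glia cocultures in 384-well plates were treated at DIV7 with 1 uM compound, then with or without 100 ng/mL LPS 30 min later, for 3 days. At DIV10 live cells were stained with Hoechst 33342, NeuO (live neurons), IB4-AF594 (microglia) and DRAQ7 (necrotic cells) and imaged at 10x (4 fields per well, IN Cell Analyzer 6000). Cells were classified with Cellpose/CellProfiler plus a Random Trees classifier. Values are per-well mean counts per image field (raw, not min-max normalised) and the median microglial FormFactor per image. Three technical replicates per repeat across 4 biological repeats; DMSO and BAY61-3606 serve as controls.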"}
{"smiles": "COc1ccc2c(c[n+](C)c3c4cc5c(cc4ccc23)OCO5)c1OC", "necrotic cell count": "83.1 ± 37"}
{"smiles": "O=[N+]([O-])/N=C1\\NCCN1Cc1ccc(Cl)nc1", "necrotic cell count": "90.7 ± 47"}
{"smiles": "Cc1cccc([C@H](C)c2c[nH]cn2)c1C", "necrotic cell count": "82.7 ± 39"}
{"smiles": "O=C(c1ccccc1)C(F)(F)F", "necrotic cell count": "81.8 ± 28"}
{"smiles": "O=C1CCCC2[C@H]3CNC[C@H](C3)CN12", "note": "(some centres not stated)", "necrotic cell count": "86.8 ± 37"}
{"smiles": "OC1(c2ccc(Cl)cc2)c2ccccc2C2=NCCN21", "note": "(configuration not stated)", "necrotic cell count": "76.7 ± 42"}
{"tested_on": "rat primary cerebellar neuron-glia coculture", "experiment": "necrotic cell count (DRAQ7+) per image field (cells per field); higher = more necrosis", "details": "LPS 100 ng/mL; 1 µM; treatment time 3 days", "procedure": "as §1"}
{"smiles": "COc1ccc2c(c[n+](C)c3c4cc5c(cc4ccc23)OCO5)c1OC", "necrotic cell count": "1010 ± 490"}
{"smiles": "O=[N+]([O-])/N=C1\\NCCN1Cc1ccc(Cl)nc1", "necrotic cell count": "828 ± 240"}
{"smiles": "Cc1cccc([C@H](C)c2c[nH]cn2)c1C", "necrotic cell count": "874 ± 340"}
{"smiles": "O=C(c1ccccc1)C(F)(F)F", "necrotic cell count": "968 ± 310"}
{"smiles": "O=C1CCCC2[C@H]3CNC[C@H](C3)CN12", "note": "(some centres not stated)", "necrotic cell count": "890 ± 420"}
{"smiles": "OC1(c2ccc(Cl)cc2)c2ccccc2C2=NCCN21", "note": "(configuration not stated)", "necrotic cell count": "624 ± 510"}
